{"source": "patent US20050266420A1", "about": "“Multigene predictors of response to chemotherapy” (Board of Regents, The University of Texas System, priority 2004, published 2005)", "origin": "cited, not measured here", "test_system": "neuroblastoma SK-N-SH cell line", "settings": "SK-N-SH cells; cited from earlier work", "note": "For at least one compound, name, drawing or mass did not settle the structure."}
{"molecule": "CC1=C(/C=C/C(C)=C/C=C/C(C)=C/C(=O)O)C(C)(C)CCC1", "note": "[retinoic acid]", "values": [{"measurement": "Sensitivity to paclitaxel after treatment", "result": "decreased sensitivity to paclitaxel"}, {"measurement": "Tau expression after treatment", "result": "increased Tau expression"}]}
